{"source": "paper PMC4303912", "about": "“A primary fish gill cell culture model to assess pharmaceutical uptake and efflux: Evidence for passive and facilitated transport” (Aquatic Toxicology (Amsterdam, Netherlands), 2015)", "origin": "cited, not measured here", "set-up": "method as in AstraZeneca, 2014", "settings": "experimentally measured values; pH 7.4; ref AstraZeneca, 2014; cited from earlier work", "note": "Marks after values point to notes of the source that are not given here."}
{"smiles": "COc1ccc(CC(C)NCC(O)c2ccc(O)c(NC=O)c2)cc1", "note": "(stereo not shown) [Formoterol, formoterol]", "values": [{"measurement": "log Kow", "value": "0.41 ^*"}]}
